{"sequences": {"note": "Sequences of proteins named here, by UniProt entry; tags and fusion partners are left off.", "UniProt Q9LE42": "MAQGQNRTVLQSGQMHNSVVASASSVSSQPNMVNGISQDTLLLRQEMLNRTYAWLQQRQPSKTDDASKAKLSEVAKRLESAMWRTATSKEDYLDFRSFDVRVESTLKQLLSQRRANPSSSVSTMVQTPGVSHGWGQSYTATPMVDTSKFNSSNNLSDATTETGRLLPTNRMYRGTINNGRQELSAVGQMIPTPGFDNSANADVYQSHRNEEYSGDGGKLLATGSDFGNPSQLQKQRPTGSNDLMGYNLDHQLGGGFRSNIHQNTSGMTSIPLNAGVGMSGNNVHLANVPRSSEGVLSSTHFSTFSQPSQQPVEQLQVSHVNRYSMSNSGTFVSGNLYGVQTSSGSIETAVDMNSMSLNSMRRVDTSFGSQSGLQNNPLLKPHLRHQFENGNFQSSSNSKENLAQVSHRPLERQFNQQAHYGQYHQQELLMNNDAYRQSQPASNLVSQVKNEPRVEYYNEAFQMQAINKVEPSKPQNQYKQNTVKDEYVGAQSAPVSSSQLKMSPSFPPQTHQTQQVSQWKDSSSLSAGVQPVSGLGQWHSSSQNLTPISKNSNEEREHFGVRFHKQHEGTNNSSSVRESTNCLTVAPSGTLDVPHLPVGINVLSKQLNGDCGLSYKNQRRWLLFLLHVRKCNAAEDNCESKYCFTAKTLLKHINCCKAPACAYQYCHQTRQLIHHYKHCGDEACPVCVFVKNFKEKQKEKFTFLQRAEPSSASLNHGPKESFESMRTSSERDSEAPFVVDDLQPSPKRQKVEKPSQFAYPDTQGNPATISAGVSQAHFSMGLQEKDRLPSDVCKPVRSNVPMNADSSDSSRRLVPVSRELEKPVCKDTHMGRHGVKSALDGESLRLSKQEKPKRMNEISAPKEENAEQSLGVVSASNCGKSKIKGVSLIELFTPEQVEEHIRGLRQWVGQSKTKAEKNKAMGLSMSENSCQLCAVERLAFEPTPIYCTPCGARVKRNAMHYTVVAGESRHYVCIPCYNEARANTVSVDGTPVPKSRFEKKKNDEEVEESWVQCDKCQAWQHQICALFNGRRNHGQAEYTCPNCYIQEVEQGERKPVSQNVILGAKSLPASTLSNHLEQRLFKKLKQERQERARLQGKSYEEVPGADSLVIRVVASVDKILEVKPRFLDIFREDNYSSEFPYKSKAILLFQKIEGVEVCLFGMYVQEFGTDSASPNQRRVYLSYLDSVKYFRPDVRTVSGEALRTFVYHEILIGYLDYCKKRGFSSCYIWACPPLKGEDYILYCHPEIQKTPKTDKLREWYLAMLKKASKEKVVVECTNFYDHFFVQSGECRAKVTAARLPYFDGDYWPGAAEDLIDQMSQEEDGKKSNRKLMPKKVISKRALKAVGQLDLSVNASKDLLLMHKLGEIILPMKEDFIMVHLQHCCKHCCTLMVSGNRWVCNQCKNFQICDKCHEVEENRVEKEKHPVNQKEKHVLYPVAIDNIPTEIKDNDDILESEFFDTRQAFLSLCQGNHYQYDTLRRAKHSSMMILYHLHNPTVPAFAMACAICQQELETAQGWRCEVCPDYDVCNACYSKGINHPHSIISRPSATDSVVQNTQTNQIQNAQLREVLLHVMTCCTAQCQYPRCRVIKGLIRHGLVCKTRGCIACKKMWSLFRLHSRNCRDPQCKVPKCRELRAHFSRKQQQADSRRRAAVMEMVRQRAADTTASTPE"}, "source": "paper PMC5080334", "note": "Results are given in words; binding and its absence hold for the method and conditions named. Where a sequence is shown, tags or fusion partners need not be part of it.", "data": [{"target": "T1, UV … LOCUS 8 (Arabidopsis thaliana) (UniProt Q9FN03)", "T1 sequence": "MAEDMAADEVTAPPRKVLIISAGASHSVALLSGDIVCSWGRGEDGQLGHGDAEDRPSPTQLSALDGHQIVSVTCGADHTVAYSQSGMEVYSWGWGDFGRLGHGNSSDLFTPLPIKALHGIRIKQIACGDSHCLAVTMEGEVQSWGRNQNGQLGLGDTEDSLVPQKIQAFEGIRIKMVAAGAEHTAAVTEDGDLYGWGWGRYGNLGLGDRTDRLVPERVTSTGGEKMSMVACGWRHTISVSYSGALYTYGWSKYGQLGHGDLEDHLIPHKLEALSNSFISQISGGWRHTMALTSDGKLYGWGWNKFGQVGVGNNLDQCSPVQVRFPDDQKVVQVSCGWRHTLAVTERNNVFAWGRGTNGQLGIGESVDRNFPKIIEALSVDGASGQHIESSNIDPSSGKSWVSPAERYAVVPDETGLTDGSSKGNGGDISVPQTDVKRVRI", "assay": "two-hybrid; yeast two-hybrid, performed as described in Hayes et al. (2014); which protein was bait and whether the yeast was exposed to UV-B is not told for each pair", "values": [{"molecule": "Histone Acetyltransferase 5 (from UniProt Q9LE42 1-1670) (enzyme)", "binding": "no binding"}, {"molecule": "Histone Deacetylase 1 (enzyme, UniProt O22446 1-501) MDTGGNSLASGPDGVKRKVCYFYDPEVGNYYYGQGHPMKPHRIRMTHALLAHYGLLQHMQVLKPFPARDRDLCRFHADDYVSFLRSITPETQQDQIRQLKRFNVGEDCPVFDGLYSFCQTYAGGSVGGSVKLNHGLCDIAINWAGGLHHAKKCEASGFCYVNDIVLAILELLKQHERVLYVDIDIHHGDGVEEAFYATDRVMTVSFHKFGDYFPGTGHIQDIGYGSGKYYSLNVPLDDGIDDESYHLLFKPIMGKVMEIFRPGAVVLQCGADSLSGDRLGCFNLSIKGHAECVKFMRSFNVPLLLLGGGGYTIRNVARCWCYETGVALGVEVEDKMPEHEYYEYFGPDYTLHVAPSNMENKNSRQMLEEIRNDLLHNLSKLQHAPSVPFQERPPDTETPEVDEDQEDGDKRWDPDSDMDVDDDRKPIPSRVKREAVEPDTKDKDGLKGIMERGKGCEVEVDESGSTKVTGVNPVGVEEASVKMEEEGTNKGGAEQAFPPKT", "binding": "no binding"}, {"molecule": "Damaged DNA Binding Protein 1a (protein, UniProt Q9M0V3 1-1088) MSSWNYVVTAHKPTSVTHSCVGNFTSPQELNLIVAKCTRIEIHLLTPQGLQPMLDVPIYGRIATLELFRPHGEAQDFLFIATERYKFCVLQWDPESSELITRAMGDVSDRIGRPTDNGQIGIIDPDCRLIGLHLYDGLFKVIPFDNKGQLKEAFNIRLEELQVLDIKFLFGCAKPTIAVLYQDNKDARHVKTYEVSLKDKDFVEGPWSQNSLDNGADLLIPVPPPLCGVLIIGEETIVYCSASAFKAIPIRPSITKAYGRVDVDGSRYLLGDHAGMIHLLVITHEKEKVTGLKIELLGETSIASTISYLDNAVVFVGSSYGDSQLVKLNLHPDAKGSYVEVLERYINLGPIVDFCVVDLERQGQGQVVTCSGAFKDGSLRVVRNGIGINEQASVELQGIKGMWSLKSSIDEAFDTFLVVSFISETRILAMNLEDELEETEIEGFLSQVQTLFCHDAVYNQLVQVTSNSVRLVSSTTRELRDEWHAPAGFTVNVATANASQVLLATGGGHLVYLEIGDGKLTEVQHALLEYEVSCLDINPIGDNPNYSQLAAVGMWTDISVRIFSLPELTLITKEQLGGEIIPRSVLLCAFEGISYLLCALGDGHLLNFQMDTTTGQLKDRKKVSLGTQPITLRTFSSKSATHVFAASDRPTVIYSSNKKLLYSNVNLKEVSHMCPFNSAAFPDSLAIAREGELTIGTIDDIQKLHIRTIPLGEHARRICHQEQTRTFGICSLGNQSNSEESEMHFVRLLDDQTFEFMSTYPLDSFEYGCSILSCSFTEDKNVYYCVGTAYVLPEENEPTKGRILVFIVEDGRLQLIAEKETKGAVYSLNAFNGKLLAAINQKIQLYKWMLRDDGTRELQSECGHHGHILALYVQTRGDFIVVGDLMKSISLLLYKHEEGAIEERARDYNANWMSAVEILDDDIYLGAENNFNLLTVKKNSEGATDEERGRLEVVGEYHLGEFVNRFRHGSLVMRLPDSEIGQIPTVIFGTVNGVIGVIASLPQEQYTFLEKLQSSLRKVIKGVGGLSHEQWRSFNNEKRTAEARNFLDGDLIESFLDLSRNKMEDISKSMNVQVEELCKRVEELTRLH", "binding": "no binding"}, {"molecule": "Damaged DNA Binding Protein 1b (protein, UniProt O49552 1-1088) MSVWNYAVTAQKPTCVTHSCVGNFTSPQELNLIVAKSTRIEIHLLSPQGLQTILDVPLYGRIATMELFRPHGEAQDFLFVATERYKFCVLQWDYESSELITRAMGDVSDRIGRPTDNGQIGIIDPDCRVIGLHLYDGLFKVIPFDNKGQLKEAFNIRLEELQVLDIKFLYGCTKPTIAVLYQDNKDARHVKTYEVSLKDKNFVEGPWSQNNLDNGADLLIPVPSPLCGVLIIGEETIVYCSANAFKAIPIRPSITKAYGRVDLDGSRYLLGDHAGLIHLLVITHEKEKVTGLKIELLGETSIASSISYLDNAVVFVGSSYGDSQLIKLNLQPDAKGSYVEILEKYVNLGPIVDFCVVDLERQGQGQVVTCSGAYKDGSLRIVRNGIGINEQASVELQGIKGMWSLKSSIDEAFDTFLVVSFISETRILAMNIEDELEETEIEGFLSEVQTLFCHDAVYNQLVQVTSNSVRLVSSTTRELRNKWDAPAGFSVNVATANASQVLLATGGGHLVYLEIGDGTLTEVKHVLLEYEVSCLDINPIGDNPNYSQLAAVGMWTDISVRIFVLPDLTLITKEELGGEIIPRSVLLCAFEGISYLLCALGDGHLLNFQLDTSCGKLRDRKKVSLGTRPITLRTFSSKSATHVFAASDRPAVIYSNNKKLLYSNVNLKEVSHMCPFNSAAFPDSLAIAREGELTIGTIDDIQKLHIRTIPIGEHARRICHQEQTRTFAISCLRNEPSAEESESHFVRLLDAQSFEFLSSYPLDAFECGCSILSCSFTDDKNVYYCVGTAYVLPEENEPTKGRILVFIVEEGRLQLITEKETKGAVYSLNAFNGKLLASINQKIQLYKWMLRDDGTRELQSECGHHGHILALYVQTRGDFIAVGDLMKSISLLIYKHEEGAIEERARDYNANWMTAVEILNDDIYLGTDNCFNIFTVKKNNEGATDEERARMEVVGEYHIGEFVNRFRHGSLVMKLPDSDIGQIPTVIFGTVSGMIGVIASLPQEQYAFLEKLQTSLRKVIKGVGGLSHEQWRSFNNEKRTAEAKGYLDGDLIESFLDLSRGKMEEISKGMDVQVEELCKRVEELTRLH", "binding": "no binding"}, {"molecule": "Damaged DNA binding 2 (protein, UniProt Q6NQ88 1-557) MSSTRSRRKRDPEIVIARDTDSELSSSEEEEEEEDNYPFSESEEEDEAVKNGGKIELEKNKAKGKAPITVKLIKKVCKVCKQPGHEAGFKGATYIDCPMKPCFLCKMPGHTTMSCPHRVVTDHGILPTSHRNTKNPIDFVFKRQLQPRIPPIKPKYVIPDQVHCAVIRYHSRRVTCLEFHPTKNNILLSGDKKGQIGVWDFGKVYEKNVYGNIHSVQVNNMRFSPTNDDMVYSASSDGTIGYTDLETGTSSTLLNLNPDGWQGANSWKMLYGMDINSEKGVVLAADNFGFLHMIDHRTNNSTGEPILIHKQGSKVCGLDCNPVQPELLLSCGNDHFARIWDMRKLQPKASLHDLAHKRVVNSAYFSPSSGTKILTTCQDNRIRIWDSIFGNLDLPSREIVHSNDFNRHLTPFKAEWDPKDTSESLIVIGRYISENYNGTALHPIDFIDASNGQLVAEVMDPNITTITPVNKLHPRDDVLASGSSRSLFIWRPQDNTEMVEEKKDKKIIICYGDSKKKGKKQKRGSDDEDDEDDIFSSKGKNIKVNKYQAKTTKKTKT", "binding": "no binding"}]}]}
